A: 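Assay on Mycobacterium tuberculosis, filed only as a heat shock assay from Cornell; the read-out is not stated. The concentration is filed as 10 mM, unlikely as a test dose, so the dose is not known. The record gives no direction; compounds that gave an IC50 in retests scored well above the rest, so higher reads as stronger inhibition. About 69,000 compounds were tested under these conditions; 1.4% (about 930) showed 50% or more at least once.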
B: 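Whole-cell assay for inhibitors of Mycobacterium tuberculosis growth, labelled Cornell in the record; the read-out is not stated. The concentration is filed as 10 mM, unlikely as a test dose, so the dose is not known. The record gives no direction; compounds strong in two other growth screens of this library score well above the rest, so higher reads as stronger inhibition. Size under these conditions: about 53,000 compounds, about 900 of them at 50% or above in at least one test.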
C: 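Methionyl-tRNA synthetase (putative), Leishmania donovani (UniProt E9BF75). Primary screen of methionyl-tRNA synthetase; the read-out is not stated. The test concentration is not given. The values are filed as inhibition. Size under these conditions: about 68,000 compounds, about 24 of them at 50% or above in at least one test.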

Protein sequences, listed by entry. Tags and fused reporters are not part of them.
UniProt E9BF75, entry or part of it: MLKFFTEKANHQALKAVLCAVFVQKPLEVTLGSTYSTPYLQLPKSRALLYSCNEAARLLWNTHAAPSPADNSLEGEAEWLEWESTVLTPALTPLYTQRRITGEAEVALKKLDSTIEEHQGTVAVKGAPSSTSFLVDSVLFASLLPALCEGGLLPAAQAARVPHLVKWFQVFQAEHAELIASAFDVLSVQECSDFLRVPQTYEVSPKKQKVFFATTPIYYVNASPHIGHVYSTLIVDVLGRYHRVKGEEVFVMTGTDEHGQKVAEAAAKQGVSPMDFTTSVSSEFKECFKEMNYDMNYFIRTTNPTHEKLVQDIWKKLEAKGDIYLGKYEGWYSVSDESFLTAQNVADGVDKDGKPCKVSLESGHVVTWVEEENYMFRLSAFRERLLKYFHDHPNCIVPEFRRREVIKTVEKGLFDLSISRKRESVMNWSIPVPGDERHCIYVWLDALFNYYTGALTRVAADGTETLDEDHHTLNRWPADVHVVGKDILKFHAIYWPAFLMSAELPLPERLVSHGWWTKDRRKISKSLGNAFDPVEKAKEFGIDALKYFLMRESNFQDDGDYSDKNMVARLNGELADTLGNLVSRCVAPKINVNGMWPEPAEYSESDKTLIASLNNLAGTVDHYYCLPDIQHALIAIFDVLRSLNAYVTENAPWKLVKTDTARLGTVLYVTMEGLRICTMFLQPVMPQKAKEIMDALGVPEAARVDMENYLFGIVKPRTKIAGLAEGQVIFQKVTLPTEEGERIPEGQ

All values are in %.
The record does not define 0% and 100%; most values in the screen are far below 50% and negative numbers occur (in some assays of this library far below -100).
The compounds are a random part of those screened.
A dash means the value is not listed here; it may have been measured.

| compound | A | B | C |
|---|---|---|---|
| `Oc1cccc(CNCC2CCCO2)c1` (stereo not shown) | -26.8 | - | 1.918 |
| `Cc1ccc(N2CCN(Cc3ccccc3)C3(CCNCC3)C2=O)cn1.O=C(O)C(F)(F)F` | -7.966 | 3.7 | - |
| `Cc1nccn1Cc1nnc(C2CCCN(Cc3ccncc3)C2)n1C` (stereo not shown) | -10.45 | -2.212 | 19.88 |
| `O=C(c1cccc(CNS(=O)(=O)c2ccccc2F)c1)N1CCCC1` | -13.36 | - | 16.67 |
| `NC(=O)C1CCN(C(=O)NCc2cccnc2OCC(F)(F)F)C1` (stereo not shown) | 1.675 | - | 15.64 |
| `c1ccc(OC[C@]23COC[C@H]2CN(c2ncccn2)C3)nc1` | - | - | 6.276 |
| `CCc1c(C(=O)N2CCC3(CCCN(CCO)C3=O)C2)csc1C` (stereo not shown) | -3.687 | -6.446 | -2.055 |
| `FC(F)Oc1ccc(CN2CCOC3(CCOCC3)C2)cc1Cl` | 3.516 | 29.06 | 7.94 |
| `Cc1cccc(CN2C(=O)CCC23CCN(c2ccccn2)CC3)n1.O=C(O)C(F)(F)F.O=C(O)C(F)(F)F` | 2.414 | 11 | - |
| `CN(C)CCN1CC(C(=O)N2CCC(c3cc(=O)[nH]cn3)CC2)CC1=O` (stereo not shown) | -0.2236 | 2.855 | 11.18 |
| `Cc1cc(N(C)C)nc(N(C)Cc2csc(C)n2)n1` | -5.938 | 6.476 | 6.964 |
| `c1ccc(CO[C@@H]2C[C@H]3CN(c4ncccn4)CCN3C2)cc1` | - | - | 8.333 |
| `O=C(NCc1ccco1)[C@@]12CCO[C@@H]1CCN(CCN1CCCC1)C2` | - | - | 9.623 |
| `COc1ncccc1NC(=O)N1CCC(CN2CCOCC2)CC1` | -8.208 | 3.003 | 7.805 |
| `Cn1cnc(S(=O)(=O)N2C[C@@H]3CC[C@H](C2)N(Cc2cscn2)C3=O)c1` | - | - | 21.61 |
| `O=C(Cn1cccn1)N1CCC(Oc2ccc(C(F)(F)F)cn2)CC1` | -5.739 | - | -2.428 |
| `O=C(Cc1ccc2c(c1)OCO2)N1CCN(c2ccccc2Cl)C(=O)C1` | -8.891 | - | 8.075 |
| `O=C(NCc1cccnc1N1CCCC(O)C1)c1ccsc1` (stereo not shown) | -1.997 | -8.597 | 7.396 |
| `Cc1ccc(N2CCCC(NCc3cccs3)C2)nn1` (stereo not shown) | -5.806 | - | 15.64 |
| `O=C(CSc1ccccc1)N1CCC(N2CCCCC2=O)CC1` | 14.64 | 2.171 | 5.556 |
| `COCCN1CC(=O)N(C(C)C)C(C)(C)C1` | 8.364 | 20.14 | 9.164 |
| `Cc1ccc(CC(=O)N2CCCCC2Cn2cccn2)cn1` (stereo not shown) | -14.59 | -3.442 | 7.362 |
| `Cc1cc(Br)c2c(c1)C1(CC(=O)Nc3c1cnn3C(C)C)C(=O)N2` (stereo not shown) | 15.92 | 16.47 | 6.97 |
| `Cc1nc(O)cc(C2CCCN2CCO)n1` (stereo not shown) | -13.45 | 2.017 | 8.854 |
| `CC(C)c1nc(C2CCCN2Cc2ccn(C)c(=O)c2)no1` (stereo not shown) | 45.71 | 11.35 | 12.27 |
| `CCS(=O)(=O)c1ncc(CN(C)C)n1Cc1ccccc1` | -32.52 | -10.39 | 1.25 |
| `CCOc1ccccc1NC(=O)Nc1cc(N2CCCC2)ncn1` | 2.633 | 31.58 | 10.79 |
| `COc1ccccc1OC1CN(c2ccncc2)C1` | 6.817 | 23.72 | 11.05 |
| `Cc1cc(C)n(-c2ccc(C(=O)NCC(CO)Cc3ccco3)cc2)n1` (stereo not shown) | 10.8 | - | 16.97 |
| `CC(C)c1nc(/C=C/c2cnn(-c3ccccc3)c2)ncc1C(=O)O` | 8.298 | 20.15 | 15.53 |
| `COC(=O)[C@H]1C[C@@H](O)CCN1S(=O)(=O)c1cc(Cl)ccc1OC` | -10.18 | - | 18.21 |
| `Br.Cc1cccc(N(CC(=O)c2ccccc2)C2=NCCCCC2)c1` | 15.52 | 13.79 | - |
| `CC(C)CCn1cc(C(C(=O)O)N2CCSCC2)cn1` (stereo not shown) | 9.849 | - | 16.97 |
| `Cc1ccc(-c2nnc(CNC(=O)c3cccnc3)o2)cn1` | 3.84 | 7.959 | 4.724 |
| `[H][C@]12CN(C(=O)c3ccno3)CCN1C(=O)N(Cc1ccc(OC)cc1)C2` | -12.72 | - | - |
| `CC(C)=CCN1CCNC(=O)C1CC(=O)N1CCc2sccc2C1` (stereo not shown) | 16.07 | 3.173 | 16.31 |
| `COCc1cc(CC2(NC3CCCCC3)COC2)no1` | -53.03 | -18.91 | 5.537 |
| `CCc1c(C)[nH]c(C2(N)CCCCC2)nc1=O.Cl` | -31.03 | 13.74 | - |
| `c1ccc(COc2cccc(CNC3CCc4ncnn4C3)c2)cc1` (stereo not shown) | -12.08 | - | 11.72 |
| `Cc1cc(CN2C[C@@H]3CN(Cc4ccsc4)CCO[C@@H]3C2)no1` | - | - | 14.38 |
| `CNc1nc(C2CCCN(C(=O)C(C)(C)OC)C2)nc2c1CN(C)CC2` (stereo not shown) | -0.284 | 2.205 | 12.9 |
| `Cc1ccc(CNC(=O)CN(CCC(N)=O)c2ccc(F)cc2)cc1` | -2.378 | 23.47 | 15.45 |
| `CCNC(=O)N1CCC(Cc2cccc(C(N)=O)c2)C1` (stereo not shown) | 8.351 | -4.032 | 2.676 |
| `COc1ccc2c(ccn2CCCN)c1.O=C(O)C(=O)O` | -0.3497 | 40.68 | - |
| `Cn1c(Cn2cccn2)nnc1C1CCCN(c2ccncc2)C1` (stereo not shown) | -9.266 | - | 11.23 |
| `COc1ccc(CC(=O)N2CCN(c3nccn3C)CC2)cc1` | - | - | -4.636 |
| `O=S1(=O)CCC(n2cc(C3=CCN(CCc4ccccc4)CC3)cn2)C1` (stereo not shown) | 1.179 | 16.7 | 19.51 |
| `CN(C(=O)Cc1ccc(NC(=O)NC2CC2)cc1)c1ccccc1` | -4.467 | -54.8 | 8.877 |
| `c1cc(CNc2ncc(-c3cnccn3)c(C3CC3)n2)ccn1` | 4.056 | -5.136 | 7.874 |
| `COCCNC(=O)c1cc(F)ccc1NS(C)(=O)=O` | -22.27 | 16.98 | 9.409 |
| `CC(C)C1SCC(=O)Nc2c1cnn2-c1ccc(Cl)cc1F` (stereo not shown) | 4.889 | 29.01 | 15.45 |
| `O=c1cc(Cn2ccnc2)nc2n1CCCN(CC1CCOCC1)C2` | -11.58 | -31.8 | 10.95 |
| `Cc1c[nH]c(CN2CCCCC2CCc2cccc(O)c2)c(C)c1=O` (stereo not shown) | 6.357 | 19.09 | 10.18 |
| `Cc1ccc(CN2CCC3(CC2)CC(c2cccnc2)C(=O)N3C)o1` (stereo not shown) | - | - | 18.03 |
| `Cc1ccoc1C(=O)NC1CCN(Cc2ccccc2F)CC1` | -10.96 | -18.61 | 15.19 |
| `c1cnn(CC2CCCN2c2ncnc3c2CCC3)c1` (stereo not shown) | -9.603 | 17.14 | 3.665 |
| `Cc1ccc(C(=O)N2CCSCC2)cc1NC(=O)NCC1CCC1` | 1.692 | 13.66 | 14.12 |
| `Cc1ccccc1CSc1nc(=O)n(CCO)c2c1CCC2` | -11.12 | 1.031 | 10.84 |
| `Cc1cccc(=O)n1CCCNc1nc(N(C)C)nc2c1CCNC2` | 44.77 | - | 23.31 |
| `CCn1ncnc1CN1CCC(CNC(=O)c2cccc(C)n2)C1` (stereo not shown) | -8.575 | 18.34 | 13.52 |
| `CS(=O)(=O)N1CCC[C@]2(C[C@@H](Oc3ncccc3F)CO2)C1.O=C(O)C(F)(F)F` | -1.952 | 16.95 | - |
| `OC(CNc1cncc(OCc2ccccc2)n1)c1ccco1` (stereo not shown) | -11.12 | - | 2.93 |
| `O=C(O)C(F)(F)F.O=C(O)C(F)(F)F.O=C(O)c1cc2c(nc1-c1ccoc1)CCN(Cc1ccco1)CC2` | -0.2731 | 6.574 | - |
| `Cc1cc(C(=O)N2CCCC(O)(CN3CCCC3)C2)ccc1Cl` (stereo not shown) | -13.68 | 5.61 | 8.01 |
| `Cc1cc(N2CCC3(CCC(=O)N(CC4CC4)C3)CC2)ncn1` | 4.953 | - | 9.253 |
| `CCn1nc(C)cc1C(=O)N1C[C@@H]2C[C@@H](c3noc(C)n3)O[C@@H]2C1` | - | - | 12.64 |
| `CC1N(CC2CC2)C(=O)COC12CCN(Cc1nccs1)CC2.O=C(O)C(F)(F)F` (stereo not shown) | -38.54 | 28.95 | - |
| `Cc1ncc(C(=O)N2CCC(N3CCc4ccccc4C3)CC2)c(O)n1` | 0.6559 | - | 4.8 |
| `CCc1ccc(CN2CCC3(CCCN(C(=O)c4cnccn4)C3)C2)o1.O=C(O)C(F)(F)F` (stereo not shown) | -22.81 | 11.68 | - |
| `COc1cccc(CNC(C)C)c1OCc1ccc(C)cc1.Cl` | 4.479 | 13.97 | - |
| `CC(C)c1nsc(N2CCOC3(CCCC3)C2)n1` | -14.52 | -5.734 | 9.03 |

Some entries from above, unchanged:

- COCCN1CC(=O)N(C(C)C)C(C)(C)C1 : A: 8.364%; B: 20.14%; C: 9.164%
- CC1N(CC2CC2)C(=O)COC12CCN(Cc1nccs1)CC2.O=C(O)C(F)(F)F (stereo not shown) : A: -38.54%; B: 28.95%
- Cc1ccc(CC(=O)N2CCCCC2Cn2cccn2)cn1 (stereo not shown) : A: -14.59%; B: -3.442%; C: 7.362%
- Cc1cc(N(C)C)nc(N(C)Cc2csc(C)n2)n1 : A: -5.938%; B: 6.476%; C: 6.964%
- COCCNC(=O)c1cc(F)ccc1NS(C)(=O)=O : A: -22.27%; B: 16.98%; C: 9.409%
- O=C(O)C(F)(F)F.O=C(O)C(F)(F)F.O=C(O)c1cc2c(nc1-c1ccoc1)CCN(Cc1ccco1)CC2 : A: -0.2731%; B: 6.574%
- Cc1nc(O)cc(C2CCCN2CCO)n1 (stereo not shown) : A: -13.45%; B: 2.017%; C: 8.854%
- O=C(NCc1cccnc1N1CCCC(O)C1)c1ccsc1 (stereo not shown) : A: -1.997%; B: -8.597%; C: 7.396%

Source: ChEMBL document CHEMBL3988442, “University of Dundee, Small-Polar-MMV Screening Library” (2021).